Data taken from PMC4248064.
Results are given in words; binding and its absence hold for the method and conditions named. Binding seen in cells or lysates may run through a third protein. Some entries that bind do so weakly or less than the wild type.

Chains of the proteins cited; added tags and fusions are not shown.
UniProt O15169: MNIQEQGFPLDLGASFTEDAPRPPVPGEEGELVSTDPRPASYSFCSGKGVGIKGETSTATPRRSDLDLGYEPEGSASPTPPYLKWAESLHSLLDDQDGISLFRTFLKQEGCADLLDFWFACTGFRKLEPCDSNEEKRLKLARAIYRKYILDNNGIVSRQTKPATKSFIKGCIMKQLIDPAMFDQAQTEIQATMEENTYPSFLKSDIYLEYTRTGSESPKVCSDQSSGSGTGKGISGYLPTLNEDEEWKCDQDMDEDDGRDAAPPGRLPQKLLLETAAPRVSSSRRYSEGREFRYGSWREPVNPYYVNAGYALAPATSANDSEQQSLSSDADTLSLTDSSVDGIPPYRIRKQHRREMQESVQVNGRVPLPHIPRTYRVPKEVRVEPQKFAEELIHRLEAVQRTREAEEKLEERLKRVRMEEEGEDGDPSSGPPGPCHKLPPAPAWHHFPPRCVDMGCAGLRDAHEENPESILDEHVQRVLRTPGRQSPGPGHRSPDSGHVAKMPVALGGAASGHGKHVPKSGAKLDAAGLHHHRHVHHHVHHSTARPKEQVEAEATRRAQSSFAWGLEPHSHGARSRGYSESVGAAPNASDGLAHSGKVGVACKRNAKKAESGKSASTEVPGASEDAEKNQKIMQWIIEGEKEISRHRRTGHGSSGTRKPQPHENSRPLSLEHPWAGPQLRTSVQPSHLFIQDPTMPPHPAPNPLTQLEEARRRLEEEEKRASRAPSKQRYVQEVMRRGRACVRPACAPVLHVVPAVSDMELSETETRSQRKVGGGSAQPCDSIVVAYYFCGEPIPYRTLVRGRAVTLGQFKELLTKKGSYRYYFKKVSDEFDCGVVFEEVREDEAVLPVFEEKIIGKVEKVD
UniProt P35222: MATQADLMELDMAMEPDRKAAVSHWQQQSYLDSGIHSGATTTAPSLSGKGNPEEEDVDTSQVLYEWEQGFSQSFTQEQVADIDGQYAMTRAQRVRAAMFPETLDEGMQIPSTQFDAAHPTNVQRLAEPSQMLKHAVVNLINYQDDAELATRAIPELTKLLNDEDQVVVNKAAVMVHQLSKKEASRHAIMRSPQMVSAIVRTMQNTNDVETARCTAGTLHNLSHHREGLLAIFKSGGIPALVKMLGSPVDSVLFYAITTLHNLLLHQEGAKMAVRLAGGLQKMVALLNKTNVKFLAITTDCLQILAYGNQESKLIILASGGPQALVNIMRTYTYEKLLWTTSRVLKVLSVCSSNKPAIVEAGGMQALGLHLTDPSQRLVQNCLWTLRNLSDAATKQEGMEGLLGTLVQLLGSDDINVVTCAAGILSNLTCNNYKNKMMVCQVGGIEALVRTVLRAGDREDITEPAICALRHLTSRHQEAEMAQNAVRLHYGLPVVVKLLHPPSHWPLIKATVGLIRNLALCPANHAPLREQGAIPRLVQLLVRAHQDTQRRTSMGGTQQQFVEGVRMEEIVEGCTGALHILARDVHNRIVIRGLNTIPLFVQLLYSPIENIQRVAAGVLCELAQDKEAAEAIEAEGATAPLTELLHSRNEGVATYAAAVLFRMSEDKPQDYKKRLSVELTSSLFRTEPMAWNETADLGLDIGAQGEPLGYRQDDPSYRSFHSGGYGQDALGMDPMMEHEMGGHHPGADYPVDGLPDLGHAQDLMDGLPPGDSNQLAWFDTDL

Assays:
[1] = target: Axin1 (endogenous) (human (endogenous in HEK293T, SW480, LS174T)) (UniProt O15169); test: co-IP; endogenous proteins, HEK293T cells untreated or treated with Wnt3a-conditioned medium; lysis in 100 mM NaCl, 50 mM Tris pH 7.5, 0.25% Triton X-100; 1 µg antibody (anti-Axin1 or anti-β-catenin), protein G beads, 4°C
[2] = target: Axin1 (endogenous) (human (endogenous in HEK293T, SW480, LS174T)) (UniProt O15169); test: co-IP; endogenous proteins, SW480 colorectal cancer cells (APC truncated at Q1338); anti-Axin1 precipitation, protein G beads
[3] = target: β-catenin (endogenous, total) (human (endogenous in HEK293T)) (UniProt P35222); test: co-IP; endogenous proteins, HEK293T cells untreated or treated with Wnt3a-conditioned medium; lysis in 100 mM NaCl, 50 mM Tris pH 7.5, 0.25% Triton X-100; 1 µg antibody (anti-Axin1 or anti-β-catenin), protein G beads, 4°C

Row | Substance | binding [1] | binding [2] | binding [3]
1 | non-phosphorylated β-catenin (from UniProt P35222 1-781) | binds | binds | –
2 | Axin1 (endogenous) (from UniProt O15169 1-862) | – | – | binds
3 | β-catenin (endogenous, total) (from UniProt P35222 1-781) | binds | – | –
4 | phosphorylated β-catenin (pS33/pS37/pT41) (from UniProt P35222 1-781) | binds | binds | –
